In PubChem BioAssay AID493014 (National Center for Advancing Translational Sciences (NCATS), 2011):
This is one part of the list. Shown are side measurements of this screen, not its main read-out; they come without a call. Most of these compounds were active or inconclusive in the main read-out, so they are no random draw. Words in brackets tell the shape of the fitted curve; partial curves, single points and poor fits give uncertain potencies.

Experiment: qHTS Assay to Find Inhibitors of Chronic Active B-Cell Receptor Signaling
Details: ABC-DLBCL IkBa-CBG/CBR reporter, luminescence ratio (green luciferase fused to IkBa over red control in TMD8 lymphoma cells), 4 h
How it was run: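 Concentration-response series (up to 46 uM) were applied to TMD8 dual-reporter cells for 4 h at 37C with doxycycline. Green/red ratio, after filter-overlap correction, defined %Activity; red signal alone was normalised to basal cells and zero luminescence.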

[1] = measured here: CBR red luminescence, cell number

Row | Structure (SMILES) | AC50 [1] | AC50 (measured here: IkBa-CBG green luminescence)
1 | O=c1c(Cl)c(NCC2CCCO2)cnn1C12CC3CC(CC(C3)C1)C2 (stereo not given) | 2 µM [rising, partial curve, poor fit] | –
2 | CCN1CCN(S(=O)(=O)c2cc(OCC(=O)NC3CCCCC3)c(C)cc2Cl)CC1 | 0.0058 µM [rising, full curve, poor fit] | –
3 | COc1cc(OC)cc(-c2nnc(SCC(=O)N(Cc3ccccc3)C(C)(C)C)o2)c1 | 0.112 µM [falling, full curve, poor fit] | –
4 | C[C@@H]1CC=C[C@H]2[C@H]1C(=O)N(Cc1ccccc1)[C@H]2c1ccc(F)c(Br)c1 | 35.5 µM [falling, single point] | –
5 | COc1ccccc1C(=O)NCCc1c(C)[nH]c2c(C)ccc(F)c12 | 0.631 µM [rising, full curve, poor fit] | –
6 | COc1cc(-n2c(C)nc3cccnc32)c(Cl)cc1C(=O)O | 22.4 µM [falling, partial curve, poor fit] | –
7 | COc1cc(NC(=S)N2CCN(c3ccccn3)CC2)cc(OC)c1 | 2.06 µM [falling, full curve] | –
8 | Cn1c(=O)c2c(nc(Br)n2CCCc2ccccc2)n(C)c1=O | 3.55 µM [falling, partial curve, poor fit] | –
9 | O=C(C1=C(O)C(=O)N(c2nccs2)C1c1ccccc1)c1cc2ccccc2o1 (stereo not given) | 12.6 µM [falling, single point] | –
10 | c1ccc(Nc2nc(-c3ccncc3)cs2)cc1 | 29.1 µM [falling, single point] | –
11 | Cc1ccccc1-n1c(SCC(=O)N/N=C/C=C/c2ccccc2[N+](=O)[O-])nc2ccccc2c1=O | 0.82 µM [rising, full curve] | –
12 | Cc1nc2ccc(-c3nc4ccccc4o3)cc2[nH]1 | 11.2 µM [falling, single point] | –
13 | O=c1c2ccccc2oc2nc(-c3ccco3)n(Cc3ccccc3)c(=O)c12 | 3.55 µM [falling, full curve] | –
14 | COc1ccc(CCNC2=C(Cl)C(=O)N(CCc3ccc(OC)c(OC)c3)C2=O)cc1OC | 14.6 µM [rising, partial curve, poor fit] | –
15 | CCOC(=O)c1sc(NC(=O)Nc2ccccc2)cc1C | 29.1 µM [falling, partial curve, poor fit] | –
16 | O=C(NNC(=S)Nc1ccc(Cl)c(Cl)c1)c1cccc([N+](=O)[O-])c1 | 22.4 µM [rising, partial curve, poor fit] | –
17 | Cc1ccc(C2=NCN(c3ccc(C(=O)O)cc3)C(=S)N2)cc1 | 0.891 µM [falling, full curve] | –
18 | COc1ccccc1N1CCN(S(=O)(=O)c2ccc3nc(-c4ccccc4)[nH]c3c2)CC1 | 18.4 µM [falling, single point] | –
19 | O=C(Oc1ccccc1)c1cccc2cccc(C(=O)Oc3ccccc3)c12 | 11.2 µM [rising, partial curve] | –
20 | C=CCNCCCOc1ccc(Cl)cc1Br | 29.1 µM [falling, single point] | –

3 entries out of the list, ordered by molecular weight, low to high.
Row | Structure (SMILES) | AC50 [1] | AC50 (measured here: IkBa-CBG green luminescence)
5 | COc1ccccc1C(=O)NCCc1c(C)[nH]c2c(C)ccc(F)c12 | 0.631 µM [rising, full curve, poor fit] | –
13 | O=c1c2ccccc2oc2nc(-c3ccco3)n(Cc3ccccc3)c(=O)c12 | 3.55 µM [falling, full curve] | –
18 | COc1ccccc1N1CCN(S(=O)(=O)c2ccc3nc(-c4ccccc4)[nH]c3c2)CC1 | 18.4 µM [falling, single point] | –

(list continues)

Row | Structure (SMILES) | AC50 [1] | AC50 (measured here: IkBa-CBG green luminescence)
21 | Cc1nonc1C(=O)N/N=C/c1ccccc1 | 15.8 µM [falling, single point] | –
22 | C=CCn1c(SCC(=O)NC23CC4CC(CC(C4)C2)C3)nc2cc(C(=O)O)ccc2c1=O | 14.1 µM [falling, partial curve, poor fit] | –
23 | COc1cccc(Cn2cc(C(=O)NCCN(C)C)nn2)c1 | 0.631 µM [falling, full curve, poor fit] | –
24 | CCN1CCN(C(=O)N2CCOCC2)CC1 | 3.98 µM [rising, partial curve, poor fit] | –
25 | O=C(N/N=C/c1sc(N2CCCCC2)nc1-c1cccs1)c1cccnc1 | 35.5 µM [falling, partial curve, poor fit] | –
26 | O=C(NCc1ccco1)C1CCC(N2C(=O)c3ccccc3C2=O)CC1 (stereo not given) | 11.2 µM [rising, partial curve, poor fit] | –
27 | O=C(Cn1nc(C(=O)O)c2ccccc2c1=O)NCc1ccco1 | 12.6 µM [rising, partial curve, poor fit] | –
28 | CC(OC(=O)c1ccccc1NS(=O)(=O)c1cccc(C(F)(F)F)c1)C(=O)N(C)Cc1ccccc1 (stereo not given) | – | 29.1 µM [rising, partial curve, poor fit]
29 | Cc1ccc(-c2nnc3sc(CCc4ccccc4)nn23)cc1 | 1.16 µM [rising, full curve, poor fit] | –
30 | COc1ccc(-c2cc3cc(OC)c(OC)cc3c(C)n2)cc1C | 5.62 µM [rising, full curve, poor fit] | –
31 | CC(C)(C)NC(=O)CCc1nnc(Cc2c[nH]c3ccccc23)o1 | 10 µM [falling, partial curve, poor fit] | –
32 | COc1cccc(C(=O)C[n+]2cccc3cc(OC)ccc32)c1 | 18.4 µM [falling, partial curve, poor fit] | –
33 | COC(=O)C1=C(C)N(Cc2ccccc2)C(=NCc2cc(OC)c(OC)c(OC)c2)N[C@H]1c1cccc(F)c1 | 12.6 µM [falling, single point] | –
34 | O=C(Nc1cccc(Br)c1)c1ccc(Cl)c(S(=O)(=O)N2CCOCC2)c1 | 20.6 µM [falling, partial curve, poor fit] | –
35 | CCCCNC(=O)CN1CCN(Cc2ccc3cc(OC)ccc3c2)CC1 | 0.126 µM [rising, full curve, poor fit] | –
36 | O=C(Nc1nnc(-c2ccc3c(c2)CCCC3)o1)c1c(F)cccc1F | 12.6 µM [falling, single point] | –
37 | Cc1cc2cc3c(cc2nc1SCC(=O)N1CCN(C(=O)c2ccco2)CC1)OCO3 | 22.4 µM [falling, single point] | –
38 | C=CCSc1nn2c(=O)c3ccccc3nc2s1 | 12.6 µM [falling, single point] | –
39 | O=C(c1ccc(Br)o1)N1CCN(CCOc2ccccc2)CC1 | 11.2 µM [rising, partial curve, poor fit] | –
40 | Cc1ccc(-c2nc3cccnc3o2)cc1NC(=O)COc1ccc(C(C)(C)C)cc1 | 29.1 µM [falling, single point] | –
